Test results from US20230233617A1, “METHODS FOR DIFFERENTIATING STEM CELLS INTO DOPAMINERGIC PROGENITOR CELLS” (JZ CELL TECHNOLOGIES AB, priority 2020, published 2023).
At least one compound was matched to its structure with a doubt left.

System: hPSC-derived NSCs
Assay: Ventral regional identity of hPSC-derived NSCs at 9 DDC in dSMADi+SAG conditions (NKX2.1, LMX1A, PHOX2B, NKX2.2)
Format: cell-based, human
Conditions: dSMADi+RA^2D

CNC1CCC(N(Cc2cccc(-c3ccncc3)c2)C(=O)c2sc3ccccc3c2Cl)CC1 (stereo not shown) [SAG]
start of SAG treatment for effective induction of vMB NSC identity: 0 or 1 DDC
